Experimental data from PubChem BioAssay AID1671190 (National Center for Advancing Translational Sciences (NCATS), 2021).
Hit rate of the full screen: of about 580,000 compounds, about 6,100 (1.1%) were called active. This list was built around the results that the source calls inconclusive (neither active nor inactive); the mix of calls is not that of the screen. Calls follow the shape of the dose curve; as a rule, active = well fitted inhibition curve with a large enough effect; inconclusive = small, poorly fitted or top-dose-only effect, or another doubt; inactive = no such curve, though single readings can be large or run the other way. Potencies beside an inconclusive call are fits to weak or partial responses and may not hold up.
% is scaled to controls: 0 for no effect and ±100 for the full control effect; potency is read from the fitted curve at half-maximal effect.

By UniProt entry, the sequences of proteins in these tests, tags left out. Where a name states a change or a piece, a line headed by the entry shows the natural chain unless it says otherwise.
UniProt P18054: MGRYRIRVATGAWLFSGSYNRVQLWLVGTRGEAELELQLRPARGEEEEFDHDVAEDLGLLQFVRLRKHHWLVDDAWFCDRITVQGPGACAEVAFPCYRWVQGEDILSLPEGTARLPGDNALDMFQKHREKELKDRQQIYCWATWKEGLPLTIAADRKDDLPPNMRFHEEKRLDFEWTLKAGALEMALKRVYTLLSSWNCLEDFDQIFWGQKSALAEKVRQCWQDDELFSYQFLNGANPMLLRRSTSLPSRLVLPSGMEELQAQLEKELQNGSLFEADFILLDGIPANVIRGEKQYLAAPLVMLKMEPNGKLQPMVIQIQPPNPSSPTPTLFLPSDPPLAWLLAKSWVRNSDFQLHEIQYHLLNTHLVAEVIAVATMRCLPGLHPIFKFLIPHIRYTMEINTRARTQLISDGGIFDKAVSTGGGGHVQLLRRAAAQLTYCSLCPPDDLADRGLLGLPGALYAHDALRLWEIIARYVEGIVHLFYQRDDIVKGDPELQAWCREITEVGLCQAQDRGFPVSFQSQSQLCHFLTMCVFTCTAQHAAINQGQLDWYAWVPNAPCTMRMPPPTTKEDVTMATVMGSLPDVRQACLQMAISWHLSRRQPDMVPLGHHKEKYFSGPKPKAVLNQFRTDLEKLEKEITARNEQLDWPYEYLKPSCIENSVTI

These compounds were tested against Polyunsaturated fatty acid lipoxygenase ALOX12 (Homo sapiens) (UniProt P18054) (assay: Primary qHTS assay for inhibitors of human arachidonate 12S-lipoxygenase (ALOX12): Round 2). Conditions: purified 12hLO, xylenol orange hydroperoxide absorbance; activity change, negative = inhibition: at 108 µM (top of the series) unless noted.
Method in brief: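 Purified human 12hLO at 150 nM in 25 mM Hepes, 0.01% Triton X-100, pH 7.0, preincubated 15 min at room temperature with compound. Reaction started with 40 uM arachidonic acid, 30 min at room temperature. Hydroperoxide measured by Fe-xylenol orange, 573/405 nm absorbance ratio.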
In the case of `Cc1ccc(NC(=O)CSc2nnc(C)c(=O)n2N)cc1Cl`, the “activity change, negative = inhibition” value is reported as inactive: 12.5%. With `O=C(Nc1ccccc1)N(CCCN1CCOCC1)Cc1cc2cc3c(cc2[nH]c1=O)OCCO3` the Potency was inconclusive: 44.7 µM [inhibitor, partial curve, poor fit]. `CCCCNC(=O)CC(C(=O)N1CCc2ccccc21)n1ccnc1` (configuration not stated) was tested, and the “activity change, negative = inhibition” value was inactive: 20.6%. For `CNC(=S)NNS(=O)(=O)c1ccc(OC)cc1OC`, the “activity change, negative = inhibition” value was inactive: 19.4%. In the case of `COCC(C)NC(=O)c1oc2c(c1C)C1(CCC2)SCCS1` (configuration not stated), the “activity change, negative = inhibition” value is reported as inactive: -17.5%. With `Cc1cc(C(C#N)c2ccc(Cl)cc2)c(Cl)cc1N` (configuration not stated) the Potency was inconclusive: 44.7 µM [inhibitor, partial curve, poor fit]. `CC(C)c1cc(-c2n[nH]c(=S)n2Cc2ccccc2)cs1` was tested, and the Potency was inconclusive: 50.1 µM [inhibitor, partial curve, poor fit]. With `CC1CCN(S(=O)(=O)c2ccc3c(c2)CCN3C(=O)Nc2ccc(F)cc2)CC1` the “activity change, negative = inhibition” value was inactive: 4.34%. For `Cc1c(Cl)cccc1NC(=S)Nn1cnnc1`, the Potency was inconclusive: 89.1 µM [inhibitor, single point]. In the case of `S=c1[nH]nc(-c2cccc(Cl)c2)n1Cc1ccccc1`, the Potency is reported as inconclusive: 56.2 µM [inhibitor, partial curve, poor fit]. `O=C(c1cc(COc2ccc(F)cc2Cl)on1)N1CCCCCC1` was tested, and the “activity change, negative = inhibition” value was inactive: 0%. In the case of `CCc1ccc(C(=O)N2CCN(c3ccc(NC(=O)c4ccco4)cc3)CC2)cc1`, the Potency is reported as inconclusive: 44.7 µM [inhibitor, full curve, poor fit]. With `Cc1ccccc1OCC(=O)NCCS(=O)(=O)N1CCN(c2ccc(F)cc2)CC1` the Potency was inconclusive: 100 µM [inhibitor, partial curve, poor fit]. `COC(=O)C1Sc2[nH]c(=O)sc2C(c2ccc(Cl)cc2)C1C(=O)OC` (configuration not stated) was tested, and the Potency was inconclusive: 50.1 µM [inhibitor, partial curve, poor fit]. In the case of `CCCCNC(=O)c1cccc2cccnc12`, the “activity change, negative = inhibition” value is reported as inactive: 6.88%. In the case of `N#Cc1c(NC(=O)c2nc3ncccn3n2)sc2c1CCCCC2`, the “activity change, negative = inhibition” value is reported as inactive: -8.47%. `CN(CC(=O)NC1CC1)C(=O)CSc1nnc(-c2ccc(Cl)cc2)n1C` was tested, and the Potency was inconclusive: 7.94 µM [inhibitor, full curve]. With `CCOC(=O)C1=C(C)NC(=O)NC1c1nc2ccccc2n1CC` (configuration not stated) the “activity change, negative = inhibition” value was inactive: 12.8%. `Cc1n[nH]c(=S)n1/N=C/c1ccc(Br)o1` was tested, and the Potency was inconclusive: 39.8 µM [inhibitor, partial curve, poor fit]. In the case of `COCC(C)n1c(COc2ccccc2F)nnc1SCC(C)C` (configuration not stated), the Potency is reported as inconclusive: 79.4 µM [inhibitor, single point]. `CNc1nc(Nc2ccc(C(=O)N3CCOCC3)cc2OC)ncc1Cl` was tested, and the Potency was inconclusive: 21.7 µM [inhibitor, partial curve, poor fit]. `COc1ccc(NC(=O)CCC(=O)Nc2cc(OC)c(NC(=O)c3cccs3)cc2OC)cc1` was tested, and the “activity change, negative = inhibition” value was inactive: -26.4%. In the case of `Cc1ccc(OCc2nc(C3CN(C(=O)c4n[nH]c5ccccc45)C3)no2)cc1`, the Potency is reported as inconclusive: 31.6 µM [inhibitor, single point]. `O=C(Nc1nn[nH]n1)c1cc(-c2ccccc2)nc2ccccc12` was tested, and the “activity change, negative = inhibition” value was inactive: 3.7%. In the case of `Cc1cc(NC(=O)CCc2ncc(-c3ccc(F)cc3)o2)no1`, the Potency is reported as inconclusive: 50.1 µM [inhibitor, partial curve, poor fit]. In the case of `COc1ccc(-c2oc3cc(OC)ccc3c2C(=O)c2ccc(C#N)cc2)cc1`, the Potency is reported as inconclusive: 2.43 µM [inhibitor, full curve]. With `O=S(=O)(NCc1ccccc1Cl)c1ccc(-c2cnc(C3CC3)o2)cc1` the Potency was “inactive”. `CS(=O)(=O)N1N=C(c2ccc(Br)cc2)CC1c1ccc(Br)cc1` (configuration not stated) was tested, and the Potency was inconclusive: 44.7 µM [inhibitor, partial curve, poor fit]. `Cc1nc2ccc(NC(=O)c3cccs3)cc2c(=O)n1Cc1ccc(Cl)cc1` was tested, and the Potency was inconclusive: 14.1 µM [inhibitor, full curve]. In the case of `Cc1cc(C)c(S(=O)(=O)N2CCCc3ccccc32)c(C)c1`, the Potency is reported as inconclusive: 70.8 µM [inhibitor, single point]. In the case of `O=C(N/C(C(=O)N1CCOCC1)=C(\Sc1ncccn1)c1ccccc1)c1ccccc1`, the “activity change, negative = inhibition” value is reported as inactive: 0.47%. With `O=C(c1cc(Cl)ccc1Cl)N1CCN(c2cc(-c3ccccc3)[nH]n2)CC1` the “activity change, negative = inhibition” value was inactive: 33.8%. For `O=C(O)c1ccc(-n2nc(C(F)(F)F)c3c2CCCC3)cc1`, the Potency was “inactive”. For `COc1cccc(-c2nc3ccc(O)cc3c(=O)o2)c1`, the Potency was inconclusive: 56.2 µM [inhibitor, partial curve, poor fit]. `CC(C)(C)OC(=O)C[C@@H]1C/C=C\C[C@H](CC(=O)NCCO)C(=O)NC[C@@H](c2ccccc2)OC1=O` was tested, and the Potency was inconclusive: 112 µM [inhibitor, single point]. `S=C(NCCCc1ccccc1)Nc1ccc(Br)cc1Cl` was tested, and the Potency was active: 44.7 µM. For `Cc1nc(/C=C/C(=O)N2CCN(c3cccc(C(F)(F)F)c3)CC2)cs1`, the Potency was inconclusive: 50.1 µM [inhibitor, partial curve, poor fit]. For `N#C/C(=C/c1cccc(O)c1)c1nc2ccccc2[nH]1`, the “activity change, negative = inhibition” value was inactive: -2.65%. With `Cc1cc(C)c2c(n1)SCC(=O)N2CC(=O)Nc1ccc(C)c(C)c1` the activity change, negative = inhibition was inconclusive: -30.5% [inhibitor]. In the case of `COc1ccc(C(=O)Oc2ccc(=O)n(-c3ccccc3)n2)cc1`, the “activity change, negative = inhibition” value is reported as inactive: 0%. For `COc1ccc(-n2nnnc2C(C)(C)Nc2ccc(C)cc2)cc1`, the “activity change, negative = inhibition” value was inactive: -6.05%. For `Cn1ccc2c(-c3cccc(C=O)c3)cc3c(c21)C1CCC3C1` (configuration not stated), the “activity change, negative = inhibition” value was inactive: -13.6%. For `CC(O)[C@H]1CN=C(N)N1CC1CCCCC1` (some centres not stated), the Potency was inconclusive: 126 µM [inhibitor, partial curve, poor fit]. For `CN(CC(=O)Nc1cccc(F)c1)C(=O)c1cc(-c2ccccc2)nc2ccccc12`, the “activity change, negative = inhibition” value was inactive: -29.8%. For `Cc1ccc(OCC(=O)Nc2ccc(OCc3cc(=O)n4ccsc4n3)cc2)cc1`, the Potency was inconclusive: 17.8 µM [inhibitor, partial curve, poor fit]. In the case of `Cc1ccc(C)c(S(=O)(=O)N2CCN(C(=O)NC(C)CCc3ccccc3)CC2)c1` (configuration not stated), the “activity change, negative = inhibition” value is reported as inactive: -16.4%. For `Cc1ccc(S(=O)(=O)C2(C(=O)Nc3ccc(C)c(Cl)c3)CC2)cc1`, the Potency was inconclusive: 56.2 µM [inhibitor, partial curve, poor fit].
